From the supplement of paper PMC6078165

System: MDAMB436
Assay: relative JC-1 red fluorescence (viability) vs pre-drug, coculture with fibroblast (fraction); higher = more viable cancer cells
Procedure: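 JC-1 labelled TNBC cells cocultured 1:1 (1,500 cells each) with CellTrace Violet stained primary or stromal fibroblasts in 384-well plates in FluoroBrite medium, treated with one of 42 anticancer drugs at 0.1, 1, 10 or 100 uM. JC-1 red fluorescence (mitochondrial integrity in cancer cells only) was read by plate reader every 8 h for 72 h. Values are normalised to each well's pre-drug value. The stock of one drug was tenfold lower, so its dose labels may be too high.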

CC(=O)O[C@H]1C(=O)[C@@]2(C)[C@H]([C@H](OC(=O)c3ccccc3)[C@]3(O)C[C@H](OC(=O)[C@H](O)[C@@H](NC(=O)c4ccccc4)c4ccccc4)C(C)=C1C3(C)C)[C@]1(OC(C)=O)CO[C@@H]1C[C@@H]2O [Paclitaxel]
relative JC-1 red fluorescence
Conditions | 8 h | 16 h | 24 h | 32 h | 40 h | 48 h | 56 h | 64 h | 72 h
1 µM, coculture fibroblast: C12385 | – | – | – | – | – | 0.52 | 0.504 | 0.498 | 0.507
1 µM, coculture fibroblast: H6013 | – | – | – | – | – | 0.796 | 0.784 | 0.8 | 0.789
1 µM, coculture fibroblast: H6019 | – | – | – | – | – | 0.55 | 0.5309 | 0.516 | 0.507
1 µM, coculture fibroblast: H6076 | – | – | – | – | – | 0.623 | 0.65984 | 0.667 | 0.6856
1 µM, coculture fibroblast: H6231 | – | – | – | – | – | 0.626 | 0.622 | 0.609 | 0.602
1 µM, coculture fibroblast: HADF | – | – | – | – | – | 0.72 | 0.678 | 0.678 | 0.647
1 µM, coculture fibroblast: HCFa | – | – | – | – | – | 0.678 | 0.616 | 0.605 | 0.555
1 µM, coculture fibroblast: HCPF | – | – | – | – | – | 0.5639 | 0.536 | 0.518 | 0.491
1 µM, coculture fibroblast: HHSteC | – | – | – | – | 0.71 | 0.724 | 0.674 | 0.661 | 0.619
1 µM, coculture fibroblast: HMF | – | – | – | – | 0.594 | 0.56 | 0.553 | 0.54 | 0.527
1 µM, coculture fibroblast: HPFa | – | – | – | – | 0.729 | 0.74 | 0.669 | 0.652 | 0.609
1 µM, coculture fibroblast: HUF | – | – | – | – | 0.589 | 0.557 | 0.533 | 0.51 | 0.504
1 µM, coculture fibroblast: Hs5 | – | – | – | – | 0.642 | 0.609 | 0.623 | 0.607 | 0.614
1 µM, coculture fibroblast: Hs27A | – | – | – | – | 0.7513 | 0.82 | 0.7518 | 0.759 | 0.703
1 µM, coculture fibroblast: Hs343T | – | – | – | – | 0.582 | 0.548 | 0.543 | 0.529 | 0.53
1 µM, coculture fibroblast: WS1 | – | – | – | – | 0.6139 | 0.5946 | 0.5844 | 0.577 | 0.572
10 µM, coculture fibroblast: C12385 | 0.859 | 0.774 | 0.7523 | 0.6875 | 0.6342 | 0.6102 | 0.5827 | 0.5661 | 0.562
10 µM, coculture fibroblast: H6013 | 0.871 | 0.905 | 0.868 | 0.863 | 0.843 | 0.8495 | 0.833 | 0.81 | 0.78
10 µM, coculture fibroblast: H6019 | 0.8048 | 0.736 | 0.728 | 0.674 | 0.652 | 0.643 | 0.624 | 0.62 | 0.612
10 µM, coculture fibroblast: H6076 | 0.7692 | 0.636 | 0.587 | 0.557 | 0.541 | 0.52435 | 0.538 | 0.541 | 0.55
10 µM, coculture fibroblast: H6231 | 0.804 | 0.717 | 0.63 | 0.57 | 0.526 | 0.483 | 0.46 | 0.4306 | 0.412
10 µM, coculture fibroblast: HADF | 0.9069 | 0.846 | 0.811 | 0.78 | 0.749 | 0.751 | 0.71 | 0.7 | 0.659
10 µM, coculture fibroblast: HCFa | 0.814 | 0.738 | 0.709 | 0.681 | 0.652 | 0.676 | 0.623 | 0.626 | 0.589
10 µM, coculture fibroblast: HCPF | 0.8038 | 0.695 | 0.594 | 0.546 | 0.506 | 0.466 | 0.439 | 0.415 | 0.399
10 µM, coculture fibroblast: HHSteC | 0.904 | 0.851 | 0.827 | 0.794 | 0.776 | 0.786 | 0.729 | 0.723 | 0.683
10 µM, coculture fibroblast: HMF | 0.7926 | 0.683 | 0.619 | 0.582 | 0.566 | 0.529 | 0.513 | 0.497 | 0.492
10 µM, coculture fibroblast: HPFa | 0.913 | 0.862 | 0.801 | 0.768 | 0.7449 | 0.7462 | 0.686 | 0.678 | 0.6347
10 µM, coculture fibroblast: HUF | 0.883 | 0.801 | 0.78 | 0.699 | 0.652 | 0.626 | 0.601 | 0.589 | 0.587
10 µM, coculture fibroblast: Hs5 | 0.847 | 0.768 | 0.703 | 0.648 | 0.616 | 0.563 | 0.555 | 0.521 | 0.513
10 µM, coculture fibroblast: Hs27A | 0.865 | 0.82 | 0.813 | 0.81 | 0.799 | 0.84 | 0.788 | 0.789 | 0.728
10 µM, coculture fibroblast: Hs343T | 0.85 | 0.744 | 0.662 | 0.618 | 0.578 | 0.554 | 0.521 | 0.5004 | 0.49
10 µM, coculture fibroblast: WS1 | 0.852 | 0.758 | 0.7363 | 0.658 | 0.612 | 0.588 | 0.565 | 0.528 | 0.517

Values are relative to the signal before dosing, not to a vehicle control; the signal also falls without drug.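 Labels refer to human fibroblasts, largely primary: uterine (C12385, HUF), lung (H6013), bone (Hs27A), adrenal (HADF), skin (WS1), plus mammary HMF and breast cancer-associated Hs343T. Cancer lines are basal-like or mesenchymal-like triple-negative breast cancer. The paper counts as hits responses shifting over 3x the replicate standard deviation. The tissue of the other fibroblasts is not given here.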
